Converted amounts (≈) assume the structure as drawn.
Tested on: Aspergillus fumigatus
Test: Antifungal activity against Aspergillus fumigatus ATCC 204 305
Assay type: functional

MIC: 0.55 µM (≈ 0.508 µg/mL)
Compound: C[C@@H]1[C@H](O)[C@@H](C)/C=C/C=C/C=C/C=C/C=C/C=C/C=C/[C@H](O[C@@H]2O[C@H](C)[C@@H](O)[C@H](N)[C@@H]2O)C[C@@H]2O[C@](O)(C[C@@H](O)C[C@@H](O)[C@H](O)CC[C@@H](O)C[C@@H](O)CC(=O)O[C@H]1C)C[C@H](O)[C@H]2C(=O)O [AMPHOTERICIN B]

— ChEMBL document CHEMBL1143035, “Synthesis, antifungal and haemolytic activity of a series of bis(pyridinium)alkanes” (Bioorg Med Chem, 2007)
